# According to doi:10.1101/2020.08.13.249029:
# Sequences of proteins named here, by UniProt entry; tags and fusion partners are left off.
# UniProt Q92786: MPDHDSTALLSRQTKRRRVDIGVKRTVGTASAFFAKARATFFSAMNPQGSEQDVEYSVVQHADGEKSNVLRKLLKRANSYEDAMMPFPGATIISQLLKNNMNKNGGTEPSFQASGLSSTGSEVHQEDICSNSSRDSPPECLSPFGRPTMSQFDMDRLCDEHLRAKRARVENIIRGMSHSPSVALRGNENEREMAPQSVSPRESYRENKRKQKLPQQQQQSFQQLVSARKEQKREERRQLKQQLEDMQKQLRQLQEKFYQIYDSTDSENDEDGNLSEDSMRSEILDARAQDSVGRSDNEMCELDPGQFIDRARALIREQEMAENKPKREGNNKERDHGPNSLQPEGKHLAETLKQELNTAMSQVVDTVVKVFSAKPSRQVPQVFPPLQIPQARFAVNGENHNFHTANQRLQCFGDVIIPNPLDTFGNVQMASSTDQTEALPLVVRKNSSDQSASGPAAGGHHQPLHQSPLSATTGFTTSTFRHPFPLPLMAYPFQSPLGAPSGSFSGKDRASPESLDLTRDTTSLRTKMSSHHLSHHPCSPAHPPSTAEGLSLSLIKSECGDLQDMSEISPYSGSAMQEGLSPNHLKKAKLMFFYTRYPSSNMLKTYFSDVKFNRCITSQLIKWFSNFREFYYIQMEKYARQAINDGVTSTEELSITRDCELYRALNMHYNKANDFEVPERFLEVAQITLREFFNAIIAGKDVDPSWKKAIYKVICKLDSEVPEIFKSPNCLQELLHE
# No constants are given. Whether binding was seen depends on the method and setting. In cells and extracts the contact can be indirect. Some entries that bind do so weakly or less than the wild type.
# T1: ASCL1 (human (endogenous in NCI-H2107)) (UniProt P50553)
# T1 sequence: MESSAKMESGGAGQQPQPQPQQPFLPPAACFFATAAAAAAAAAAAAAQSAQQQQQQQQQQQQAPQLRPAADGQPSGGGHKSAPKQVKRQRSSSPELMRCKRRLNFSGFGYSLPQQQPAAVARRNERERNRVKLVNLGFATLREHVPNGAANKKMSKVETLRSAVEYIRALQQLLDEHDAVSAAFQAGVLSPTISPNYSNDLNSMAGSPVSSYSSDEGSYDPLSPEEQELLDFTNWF
# B1: NKX2-1 (protein, UniProt P43699 1-371)
# chain: MSMSPKHTTPFSVSDILSPLEESYKKVGMEGGGLGAPLAAYRQGQAAPPTAAMQQHAVGHHGAVTAAYHMTAAGVPQLSHSAVGGYCNGNLGNMSELPPYQDTMRNSASGPGWYGANPDPRFPAISRFMGPASGMNMSGMGGLGSLGDVSKNMAPLPSAPRRKRRVLFSQAQVYELERRFKQQKYLSAPEREHLASMIHLTPTQVKIWFQNHRYKMKRQAKDKAAQQQLQQDSGGGGGGGGTGCPQQQQAQQQSPRRVAVPVLVKDGKPCQAGAPAPGAASLQGHAQQQAQHQAQAAQAAAAAISVGSGGAGLGAHPGHQPGSAGQSPDLAHHAASPAALQGQVSSLSHLNSSGSDYGTMSCSTLLYGRTW
# Target: T1, ASCL1 (human (endogenous in NCI-H2107))
# Experiment: co-IP
row,binding,Molecule
1,binds,PROX1 (from UniProt Q92786 1-737)
2,binds,B1
